Experimental data as given in the supplement of paper PMC10849652.
The other results are listed elsewhere or left out.

The chains behind the UniProt entries cited, without tags or fusion partners. Where a name states a change or a piece, a line headed by the entry shows the natural chain unless it says otherwise.
UniProt P60468, whole entry, looked up: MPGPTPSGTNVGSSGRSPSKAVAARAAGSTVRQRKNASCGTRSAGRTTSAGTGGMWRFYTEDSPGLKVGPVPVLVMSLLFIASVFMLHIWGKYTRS
UniProt Q9H299: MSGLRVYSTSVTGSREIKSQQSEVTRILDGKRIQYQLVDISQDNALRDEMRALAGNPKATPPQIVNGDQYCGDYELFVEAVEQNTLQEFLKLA
UniProt Q9NVA2: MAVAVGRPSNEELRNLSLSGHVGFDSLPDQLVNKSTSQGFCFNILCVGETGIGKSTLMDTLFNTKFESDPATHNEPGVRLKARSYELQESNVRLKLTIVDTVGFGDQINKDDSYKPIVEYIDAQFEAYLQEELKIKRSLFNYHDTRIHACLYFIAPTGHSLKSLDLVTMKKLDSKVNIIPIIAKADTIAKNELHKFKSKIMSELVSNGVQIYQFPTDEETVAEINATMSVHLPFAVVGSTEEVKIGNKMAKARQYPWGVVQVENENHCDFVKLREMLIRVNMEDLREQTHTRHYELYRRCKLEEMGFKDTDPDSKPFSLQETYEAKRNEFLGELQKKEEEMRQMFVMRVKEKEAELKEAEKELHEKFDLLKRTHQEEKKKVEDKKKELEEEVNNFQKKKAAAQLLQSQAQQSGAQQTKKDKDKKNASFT
UniProt Q9Y3B4: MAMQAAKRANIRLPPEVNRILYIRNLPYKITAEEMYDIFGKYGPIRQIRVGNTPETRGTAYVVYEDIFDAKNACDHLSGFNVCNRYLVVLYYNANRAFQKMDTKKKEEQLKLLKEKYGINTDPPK
UniProt Q8N6T7, whole entry, looked up: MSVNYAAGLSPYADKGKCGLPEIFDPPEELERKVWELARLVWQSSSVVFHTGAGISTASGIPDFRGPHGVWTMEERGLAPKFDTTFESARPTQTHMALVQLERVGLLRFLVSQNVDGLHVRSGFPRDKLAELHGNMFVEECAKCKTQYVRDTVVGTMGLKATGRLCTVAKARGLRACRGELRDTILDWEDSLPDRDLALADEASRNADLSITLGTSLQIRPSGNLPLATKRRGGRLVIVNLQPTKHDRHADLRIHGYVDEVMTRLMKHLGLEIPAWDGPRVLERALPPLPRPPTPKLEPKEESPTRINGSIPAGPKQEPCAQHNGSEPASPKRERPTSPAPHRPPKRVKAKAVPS
UniProt P31947: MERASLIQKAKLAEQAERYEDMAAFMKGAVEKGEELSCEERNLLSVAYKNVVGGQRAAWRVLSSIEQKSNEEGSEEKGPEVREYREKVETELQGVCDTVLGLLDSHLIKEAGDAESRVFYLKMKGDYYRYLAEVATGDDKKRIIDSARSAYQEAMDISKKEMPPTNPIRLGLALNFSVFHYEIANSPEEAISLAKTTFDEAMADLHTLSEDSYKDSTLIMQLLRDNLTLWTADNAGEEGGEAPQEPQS
UniProt Q15637: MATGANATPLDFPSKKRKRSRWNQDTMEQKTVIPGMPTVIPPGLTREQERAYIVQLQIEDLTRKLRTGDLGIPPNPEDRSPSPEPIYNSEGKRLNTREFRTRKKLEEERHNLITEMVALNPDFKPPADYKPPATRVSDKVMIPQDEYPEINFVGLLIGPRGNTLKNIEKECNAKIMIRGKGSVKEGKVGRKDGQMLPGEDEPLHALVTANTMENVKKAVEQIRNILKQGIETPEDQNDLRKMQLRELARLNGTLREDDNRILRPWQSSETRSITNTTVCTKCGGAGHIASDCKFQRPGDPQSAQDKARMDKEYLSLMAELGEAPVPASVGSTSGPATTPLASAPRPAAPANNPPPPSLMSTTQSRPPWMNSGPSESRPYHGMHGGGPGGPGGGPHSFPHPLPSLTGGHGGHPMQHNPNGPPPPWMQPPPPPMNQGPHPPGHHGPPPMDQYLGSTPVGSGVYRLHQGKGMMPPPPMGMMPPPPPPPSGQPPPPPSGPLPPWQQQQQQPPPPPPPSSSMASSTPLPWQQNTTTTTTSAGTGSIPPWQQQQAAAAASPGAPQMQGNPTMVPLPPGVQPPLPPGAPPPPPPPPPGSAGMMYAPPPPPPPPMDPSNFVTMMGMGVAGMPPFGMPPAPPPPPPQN
UniProt O60613, whole entry, looked up: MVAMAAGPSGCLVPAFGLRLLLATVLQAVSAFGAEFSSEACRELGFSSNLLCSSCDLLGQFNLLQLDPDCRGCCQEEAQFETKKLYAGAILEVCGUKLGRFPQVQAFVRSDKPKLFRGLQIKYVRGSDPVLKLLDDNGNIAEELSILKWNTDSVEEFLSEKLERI
UniProt P01008, whole entry, looked up: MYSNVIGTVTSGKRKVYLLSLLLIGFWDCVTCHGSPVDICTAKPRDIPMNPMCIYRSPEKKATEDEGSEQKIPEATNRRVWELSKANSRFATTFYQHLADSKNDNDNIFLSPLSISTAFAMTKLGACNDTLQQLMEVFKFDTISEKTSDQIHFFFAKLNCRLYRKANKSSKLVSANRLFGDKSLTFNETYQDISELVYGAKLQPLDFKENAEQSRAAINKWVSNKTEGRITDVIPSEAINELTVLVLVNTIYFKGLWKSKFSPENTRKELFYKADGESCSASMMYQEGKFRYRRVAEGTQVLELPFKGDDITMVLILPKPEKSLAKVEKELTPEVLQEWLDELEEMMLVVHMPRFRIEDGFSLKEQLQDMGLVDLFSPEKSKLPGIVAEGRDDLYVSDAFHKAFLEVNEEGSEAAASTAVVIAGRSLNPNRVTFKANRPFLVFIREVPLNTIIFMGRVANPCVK
UniProt Q68CR1: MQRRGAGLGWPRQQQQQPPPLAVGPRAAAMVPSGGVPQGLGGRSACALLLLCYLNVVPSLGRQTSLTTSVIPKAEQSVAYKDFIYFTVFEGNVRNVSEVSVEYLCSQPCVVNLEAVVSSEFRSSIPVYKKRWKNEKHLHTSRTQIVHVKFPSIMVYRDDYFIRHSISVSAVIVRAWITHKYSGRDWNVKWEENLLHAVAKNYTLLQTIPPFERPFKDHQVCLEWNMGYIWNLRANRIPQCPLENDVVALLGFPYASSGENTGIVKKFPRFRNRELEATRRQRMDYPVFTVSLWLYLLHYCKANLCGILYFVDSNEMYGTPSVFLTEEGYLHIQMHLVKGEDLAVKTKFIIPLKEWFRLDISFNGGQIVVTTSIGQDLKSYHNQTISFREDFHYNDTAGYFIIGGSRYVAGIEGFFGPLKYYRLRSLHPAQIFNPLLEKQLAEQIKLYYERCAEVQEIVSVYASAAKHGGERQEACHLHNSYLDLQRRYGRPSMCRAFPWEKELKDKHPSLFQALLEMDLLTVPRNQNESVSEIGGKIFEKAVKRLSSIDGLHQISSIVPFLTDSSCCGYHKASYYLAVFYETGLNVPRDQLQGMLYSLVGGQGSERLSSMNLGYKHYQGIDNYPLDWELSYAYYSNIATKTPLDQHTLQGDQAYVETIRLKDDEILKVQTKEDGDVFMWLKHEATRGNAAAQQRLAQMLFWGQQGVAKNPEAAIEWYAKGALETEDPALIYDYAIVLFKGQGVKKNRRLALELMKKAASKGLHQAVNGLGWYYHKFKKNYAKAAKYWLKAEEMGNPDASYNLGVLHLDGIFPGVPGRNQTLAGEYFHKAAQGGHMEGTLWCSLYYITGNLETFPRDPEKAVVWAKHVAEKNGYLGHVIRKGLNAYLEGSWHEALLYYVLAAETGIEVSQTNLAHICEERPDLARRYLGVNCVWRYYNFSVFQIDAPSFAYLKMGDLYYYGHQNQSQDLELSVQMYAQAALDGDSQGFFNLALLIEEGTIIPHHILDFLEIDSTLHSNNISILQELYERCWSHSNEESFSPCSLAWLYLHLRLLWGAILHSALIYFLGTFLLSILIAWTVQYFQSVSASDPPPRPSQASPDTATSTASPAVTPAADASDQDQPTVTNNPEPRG
UniProt Q9UJC5: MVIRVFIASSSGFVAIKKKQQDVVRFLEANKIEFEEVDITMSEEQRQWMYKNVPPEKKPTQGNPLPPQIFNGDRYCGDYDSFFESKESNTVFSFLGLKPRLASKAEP
UniProt Q13228: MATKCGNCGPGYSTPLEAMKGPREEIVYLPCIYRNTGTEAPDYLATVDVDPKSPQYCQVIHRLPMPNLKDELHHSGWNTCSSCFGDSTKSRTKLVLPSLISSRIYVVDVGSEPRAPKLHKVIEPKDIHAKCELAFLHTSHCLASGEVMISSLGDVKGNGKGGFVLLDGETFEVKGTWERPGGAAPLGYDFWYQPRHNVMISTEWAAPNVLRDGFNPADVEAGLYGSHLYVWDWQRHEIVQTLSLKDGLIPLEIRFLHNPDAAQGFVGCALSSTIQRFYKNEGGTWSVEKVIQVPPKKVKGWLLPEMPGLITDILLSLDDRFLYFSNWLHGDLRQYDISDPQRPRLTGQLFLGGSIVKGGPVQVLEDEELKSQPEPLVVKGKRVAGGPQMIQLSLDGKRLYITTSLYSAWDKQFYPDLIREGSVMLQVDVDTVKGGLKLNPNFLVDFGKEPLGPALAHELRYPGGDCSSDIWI
UniProt Q9UBV2: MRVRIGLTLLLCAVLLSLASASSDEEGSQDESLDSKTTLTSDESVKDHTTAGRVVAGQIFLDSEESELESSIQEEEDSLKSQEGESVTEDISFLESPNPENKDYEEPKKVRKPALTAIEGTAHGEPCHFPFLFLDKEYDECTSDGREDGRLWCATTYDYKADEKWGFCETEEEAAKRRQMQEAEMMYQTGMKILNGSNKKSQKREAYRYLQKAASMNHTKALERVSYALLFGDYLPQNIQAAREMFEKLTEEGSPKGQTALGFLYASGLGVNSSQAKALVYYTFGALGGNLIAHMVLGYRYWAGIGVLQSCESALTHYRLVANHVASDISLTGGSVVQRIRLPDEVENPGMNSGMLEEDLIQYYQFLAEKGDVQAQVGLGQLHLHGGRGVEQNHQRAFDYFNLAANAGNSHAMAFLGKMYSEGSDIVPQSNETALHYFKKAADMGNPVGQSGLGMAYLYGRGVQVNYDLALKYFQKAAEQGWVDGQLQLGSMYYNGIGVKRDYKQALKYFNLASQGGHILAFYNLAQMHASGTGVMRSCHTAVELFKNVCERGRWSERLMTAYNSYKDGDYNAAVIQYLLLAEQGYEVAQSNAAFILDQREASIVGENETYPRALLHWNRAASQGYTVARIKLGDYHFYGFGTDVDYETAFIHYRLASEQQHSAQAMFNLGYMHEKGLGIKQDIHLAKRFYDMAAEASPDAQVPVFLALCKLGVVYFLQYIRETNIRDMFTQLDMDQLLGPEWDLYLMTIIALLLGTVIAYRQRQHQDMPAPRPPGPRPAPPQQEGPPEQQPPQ
UniProt Q86VZ5: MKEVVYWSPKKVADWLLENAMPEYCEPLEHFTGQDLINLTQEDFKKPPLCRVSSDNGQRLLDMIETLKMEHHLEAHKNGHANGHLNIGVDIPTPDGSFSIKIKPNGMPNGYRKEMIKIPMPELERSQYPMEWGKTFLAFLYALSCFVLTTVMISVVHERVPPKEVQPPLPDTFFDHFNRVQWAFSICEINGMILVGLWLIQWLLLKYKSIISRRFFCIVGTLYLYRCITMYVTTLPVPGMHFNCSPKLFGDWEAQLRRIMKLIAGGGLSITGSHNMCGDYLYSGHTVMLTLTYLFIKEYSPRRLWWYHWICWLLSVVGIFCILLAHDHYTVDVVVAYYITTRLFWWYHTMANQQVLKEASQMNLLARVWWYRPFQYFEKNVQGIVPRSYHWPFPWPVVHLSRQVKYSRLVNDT
UniProt Q9UQ13: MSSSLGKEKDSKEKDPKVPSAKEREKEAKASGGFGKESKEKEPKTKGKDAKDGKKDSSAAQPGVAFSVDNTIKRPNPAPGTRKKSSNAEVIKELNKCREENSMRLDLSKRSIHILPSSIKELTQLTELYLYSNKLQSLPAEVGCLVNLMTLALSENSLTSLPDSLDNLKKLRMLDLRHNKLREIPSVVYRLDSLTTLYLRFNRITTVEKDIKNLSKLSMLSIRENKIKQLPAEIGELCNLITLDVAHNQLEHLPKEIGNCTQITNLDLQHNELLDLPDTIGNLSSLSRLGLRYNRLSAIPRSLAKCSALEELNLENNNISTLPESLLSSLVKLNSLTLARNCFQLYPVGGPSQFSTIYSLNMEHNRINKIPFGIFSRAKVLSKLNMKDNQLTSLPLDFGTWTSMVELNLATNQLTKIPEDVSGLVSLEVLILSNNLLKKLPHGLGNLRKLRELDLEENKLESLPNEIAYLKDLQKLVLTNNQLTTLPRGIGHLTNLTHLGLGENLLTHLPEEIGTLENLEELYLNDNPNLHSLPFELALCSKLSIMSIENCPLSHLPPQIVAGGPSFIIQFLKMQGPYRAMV
UniProt Q8NC51: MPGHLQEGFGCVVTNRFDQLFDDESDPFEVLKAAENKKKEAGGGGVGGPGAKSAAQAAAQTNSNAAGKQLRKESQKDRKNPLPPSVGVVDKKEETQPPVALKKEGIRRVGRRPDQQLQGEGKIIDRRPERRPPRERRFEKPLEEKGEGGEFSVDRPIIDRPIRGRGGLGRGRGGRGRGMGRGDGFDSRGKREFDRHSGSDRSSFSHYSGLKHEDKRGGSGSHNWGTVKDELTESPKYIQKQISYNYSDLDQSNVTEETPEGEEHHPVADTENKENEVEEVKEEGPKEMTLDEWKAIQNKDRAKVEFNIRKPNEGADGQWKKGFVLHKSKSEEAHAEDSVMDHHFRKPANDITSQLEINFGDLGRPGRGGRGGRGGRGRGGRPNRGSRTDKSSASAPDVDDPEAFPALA

compound: O=C(CCCCCCC(=O)Nc1ccccc1)NO [vorinostat]; assay: log2 fold change, soluble protein after heating vs DMSO (PISA); higher = thermal stabilisation; K562 cells, 10 uM, 30 min; active = over 0.2 and 3.5 SD of the protein, either way, in both replicates (recomputed)
Outline: (§1)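 K562 cells at 2×10^6 cells/mL were exposed to 10 μM compound for 30 min, then aliquots were heated for 3 min across 48°C-58°C, pooled, and extracted in PBS containing 0.5% NP-40 at 4°C. The supernatant after 21,000xg for 90 min was taken as soluble protein and measured by TMTpro 16plex LC-MS/MS with channel sums equalised. Thermal stability is reported relative to control samples, with values from duplicates. Fold changes are given on a log2 scale.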

log2 fold change, inactive:
SHC1 isoform 6 (UniProt P29353) 0.035
SEC61B (UniProt P60468) -0.048
SF3A3 (UniProt Q12874) 0.038
SERPINB1 (UniProt P30740) 0.026
SH3BGRL3 (UniProt Q9H299) -0.05
SETDB1 (UniProt Q15047) 0.073
SEPTIN11 isoform 2 (UniProt Q9NVA2) -0.051
SERPINB6, A0A087X1N8 -0.004
SF3B6 (UniProt Q9Y3B4) 0.037
SF3B3 (UniProt Q15393) -0.003
SIRT6 (UniProt Q8N6T7) 0.04
SF3B1 (UniProt O75533) 0.127
SFN (UniProt P31947) -0.009
SF1 isoform 6 (UniProt Q15637) -0.113
SELENOF (UniProt O60613) -0.066
SERPINC1 (UniProt P01008) 0.049
SEL1L3 (UniProt Q68CR1) 0.043
SF1 isoform 5 (UniProt Q15637) -0.028
SH3BGRL2 (UniProt Q9UJC5) -0.001
SEMA4C (UniProt Q9C0C4) -0.023
SEPTIN9 (UniProt Q9UHD8) -0.004
SH3BP1 (UniProt Q9Y3L3) -0.003
SF3B2 (UniProt Q13435) 0.017
SIGMAR1 (UniProt Q99720) 0.052
SELENBP1 isoform 4 (UniProt Q13228) 0.019
SEPTIN10 isoform 2 (UniProt Q9P0V9) -0.012
SIRT5 (UniProt Q9NXA8) -0.054
SEPTIN6 (UniProt Q14141) -0.089
SERPINB8 (UniProt P50452) -0.064
SGTB (UniProt Q96EQ0) 0.072
SEC62 (UniProt Q99442) -0.086
SEL1L (UniProt Q9UBV2) -0.016
SEC61A2 (UniProt Q9H9S3) -0.043
SGMS1 (UniProt Q86VZ5) -0.009
SFSWAP isoform 2 (UniProt Q12872) -0.052
SEPTIN7 (UniProt Q16181) -0.035
SEC61A1 (UniProt P61619) -0.026
SHOC2 (UniProt Q9UQ13) 0.045
SERBP1 (UniProt Q8NC51) -0.069
SH3GLB1 isoform 2 (UniProt Q9Y371) 0.147

compound: O=C(CCCCCCNC(=O)c1cnc(N(c2ccccc2)c2ccccc2Cl)nc1)NO [citarinostat]; assay: as above
Outline: as §1

log2 fold change, inactive:
SHC1 isoform 6 (UniProt P29353) 0.019
SEC61B (UniProt P60468) 0.007
SF3A3 (UniProt Q12874) 0.05
SERPINB1 (UniProt P30740) 0.01
SH3BGRL3 (UniProt Q9H299) -0.003
SETDB1 (UniProt Q15047) -0.017
SEPTIN11 isoform 2 (UniProt Q9NVA2) -0.009
SERPINB6, A0A087X1N8 0.021
SF3B6 (UniProt Q9Y3B4) 0.023
SF3B3 (UniProt Q15393) 0.012
SIRT6 (UniProt Q8N6T7) 0.047
SF3B1 (UniProt O75533) 0.011
SFN (UniProt P31947) -0.135
SF1 isoform 6 (UniProt Q15637) -0.008
SELENOF (UniProt O60613) 0.025
SERPINC1 (UniProt P01008) 0.018
SEL1L3 (UniProt Q68CR1) 0.04
SF1 isoform 5 (UniProt Q15637) 0.024
SH3BGRL2 (UniProt Q9UJC5) 0.022
SEMA4C (UniProt Q9C0C4) 0.065
SEPTIN9 (UniProt Q9UHD8) 0.035
SH3BP1 (UniProt Q9Y3L3) 0.034
SF3B2 (UniProt Q13435) 0.014
SIGMAR1 (UniProt Q99720) 0.044
SELENBP1 isoform 4 (UniProt Q13228) 0.039
SEPTIN10 isoform 2 (UniProt Q9P0V9) -0.014
SIRT5 (UniProt Q9NXA8) -0.067
SEPTIN6 (UniProt Q14141) 0
SERPINB8 (UniProt P50452) 0
SGTB (UniProt Q96EQ0) 0.013
SEC62 (UniProt Q99442) -0.052
SEL1L (UniProt Q9UBV2) -0.03
SEC61A2 (UniProt Q9H9S3) 0.027
SGMS1 (UniProt Q86VZ5) 0.06
SFSWAP isoform 2 (UniProt Q12872) 0.14
SEPTIN7 (UniProt Q16181) 0.011
SEC61A1 (UniProt P61619) 0.019
SHOC2 (UniProt Q9UQ13) -0.13
SERBP1 (UniProt Q8NC51) -0.07
SH3GLB1 isoform 2 (UniProt Q9Y371) 0.121
